# Source: the supplement of paper PMC8104966
# Counter-ions that a name gives are not always drawn. Some of the results follow. Repeats in this data set agree poorly, so a single value says little.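 U2OS cells carrying ACE2 were mixed with U2OS cells carrying full-length spike, and fusion was scored by imaging as the share of nuclei showing both cell types' fluorescent markers. A compound counts as an inhibitory hit when it is non-toxic and its fusion z-score falls below -3, meaning more than three standard deviations below the plate's DMSO wells.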
# System: U2OS ACE2 x SARS-CoV-2 spike co-culture
# Experiment: cell-cell fusion (fraction fused) z-score vs plate DMSO control; higher = more fusion
# Conditions: 30 µM; 5 h; toxicity class: non-toxic, passed QC
row,Compound,cell-cell fusion (z-score)
1,Cc1ccc2c(Cl)cc(Cl)c(O)c2n1,inactive: 1.15
2,Cl.N=C(N)NC(=O)c1nc(Cl)c(N)nc1N.O.O [Amiloride hydrochloride dihydrate],inactive: 2.14
3,C=CC(C1=CC(=O)C(OC)=CC1=O)c1ccc(O)cc1 (stereo not given),inactive: 1.82
4,O=C(N/N=C/c1ccc([N+](=O)[O-])o1)c1ccc(O)cc1,inactive: -0.595
5,COC(=O)/C=C/C(=O)OC [Dimethyl fumarate],inactive: 0.829
6,COc1cc(N)c(Cl)cc1C(=O)N[C@@H]1CCN(CCCOc2ccc(F)cc2)C[C@@H]1OC [Cisapride],inactive: 1.36
7,CO/N=C1/C[C@]2(C[C@@H]3C[C@@H](C/C=C(\C)C[C@@H](C)/C=C/C=C4\CO[C@H]5[C@H](O)C(C)=C[C@@H](C(=O)O3)[C@]45O)O2)O[C@H](/C(C)=C/C(C)C)[C@H]1C [Moxidectin],active: -5.74
8,CCCCCCCCCCCCCCC[C@H](O)[C@H](N)CO (racemic) [DL-erythro-Dihydrosphingosine],inactive: 3.11
9,CC1CC[C@@]23CC[C@]4(C)[C@@](CCC5[C@@]6(C)CCC(=O)C(C)(C)C6CC[C@]54C)(OC2=O)C3C1C (stereo not given in full),inactive: 1.86
10,CC(=O)Oc1cccc(C(=O)O)c1OC(C)=O,inactive: -1.06
11,Br.Cc1cccc(C2CN(C)CCc3c2cc(O)c(O)c3Cl)c1 (stereo not given),inactive: -2.35
12,CN1CCC(=C2c3ccccc3CC(=O)c3sccc32)CC1.O=C(O)/C=C/C(=O)O [Ketotifen fumarate],inactive: 2.73
13,C[C@]12CC[C@@H]3c4ccc(O)cc4CC[C@H]3[C@@H]1CC[C@@H]2O [beta-Estradiol],inactive: 3.37
14,Cc1ccc(C(=O)c2ccc(CC(=O)O)n2C)cc1 [Tolmetin],inactive: -0.174
15,CNC[C@H](O)c1cccc(O)c1.Cl,inactive: -1.91
16,Cl.Cl.NCCNCCNCCN,inactive: 0.735
17,CC1=C(CC(=O)O)c2cc(F)ccc2/C1=C\c1ccc(S(C)(=O)=O)cc1 [Sulindac sulfone],inactive: 1.26
18,CC(C)CCCC(C)C1CCC2C3=CC[C@H]4C[C@@H](O)CC[C@]4(C)C3CC[C@@]21C (stereo not given in full),inactive: 2.32
19,CCN(CC)C(=O)/C(C#N)=C/c1cc(O)c(O)c([N+](=O)[O-])c1 [Entacapone],inactive: 2.29
20,CCS(=O)(=O)Nc1cccc(C(=C2CCCCC2)c2cnc[nH]2)c1,inactive: 0.622
21,CC(=O)C1CCC2C3CC=C4CC(OS(=O)(=O)[O-])CC[C@]4(C)C3CC[C@]12C.[Na+] (stereo not given in full),inactive: 2.74
22,Nc1cc(-c2ccncc2)c[nH]c1=O,inactive: 2.85
23,CN1CC(=O)N=C1NC(=O)Nc1cccc(Cl)c1 [Fenobam],inactive: 2.64
24,CC(C)c1cc(C(C)C)c(CC(=O)NS(=O)(=O)Oc2c(C(C)C)cccc2C(C)C)c(C(C)C)c1 [Avasimibe],inactive: 3.28
25,COc1cc2c(cc1OC)C1(O)C(=O)c3ccc(O)c(C(=O)O)c3OC1CO2 (stereo not given),inactive: 1.35

# Pulled one by one from the list above, two records:
row,Compound,cell-cell fusion (z-score)
16,Cl.Cl.NCCNCCNCCN,inactive: 0.735
7,CO/N=C1/C[C@]2(C[C@@H]3C[C@@H](C/C=C(\C)C[C@@H](C)/C=C/C=C4\CO[C@H]5[C@H](O)C(C)=C[C@@H](C(=O)O3)[C@]45O)O2)O[C@H](/C(C)=C/C(C)C)[C@H]1C [Moxidectin],active: -5.74

# (further entries)

row,Compound,cell-cell fusion (z-score)
1,Cl.NNCc1ccccc1,inactive: 1.98
2,CN1CCC(OC(c2ccccc2)c2ccccc2)CC1.Cl [Diphenylpyraline hydrochloride],inactive: 2.43
3,CC1(C)O[C@@H]2[C@@H](CO[C@@]3(COS(N)(=O)=O)OC(C)(C)O[C@@H]23)O1,inactive: 0.619
4,Cl.Cl.NCCc1c[nH]cn1 [Histamine dihydrochloride],inactive: 2.72
5,Cl.Cl.NCCc1c[nH]cn1,inactive: -1.68
6,NC(=O)c1cc([N+](=O)[O-])cc([N+](=O)[O-])c1,inactive: 1.23
7,NC[C@H](O)c1ccc(O)c(O)c1.O.O=C(O)C(O)C(O)C(=O)O [Noradrenaline bitartrate],inactive: -0.819
8,Cc1cc([C@@H]2CCCN2C)on1.Cl [ABT-418 hydrochloride],inactive: 0.843
9,Nc1nc(Cl)nc2c1ncn2[C@H]1C[C@H](O)[C@@H](CO)O1 [Cladribine],inactive: 0.0845
10,C=CCCCCCCCCCCCc1ccco1,inactive: 1.82
11,Nc1c2ccccc2nc2ccccc12,inactive: 0.441
12,COc1ccc(CCNc2nc(N3CCc4cc(OC)c(OC)cc4C3)c3cc(OC)c(OC)cc3n2)cc1OC.Cl,inactive: -2.49
13,CC1=C(/C=C/C(C)=C/C=C/C(C)=C\C(=O)O)C(C)(C)CCC1 [Isotretinoin],inactive: 3.54
14,C=C1C[C@@H]2[C@@H](CC[C@@]3(C)C(=O)CC[C@@H]23)[C@@]2(C)C=CC(=O)C=C12 [Exemestane],inactive: 2.38
15,CC1(C)O[C@]2(C)CC[C@H]1CC2,inactive: -0.887
16,CC(=O)Oc1ccccc1C(=O)O [Aspirin],inactive: 3.71
17,Cl.OC(CCN1CCCCC1)(c1ccccc1)C1CCCCC1 (racemic) [DL-trihexyphenidyl hydrochloride],inactive: 2.48
18,Cn1c(=O)[nH]c(=O)c2nc[nH]c21,inactive: 4.47
19,CN1CCC(=C2c3ccccc3C=Cc3ccccc32)CC1.Cl [Cyproheptadine hydrochloride],inactive: 2.87
20,CN1CCC(=C2c3ccccc3C=Cc3ccccc32)CC1.Cl,inactive: 2.57
21,COCC(=O)O[C@]1(CCN(C)CCCc2nc3ccccc3[nH]2)CCc2cc(F)ccc2[C@@H]1C(C)C.Cl.Cl [Mibefradil dihydrochloride],inactive: -0.44
22,CCOC(N)=O,inactive: 2.09
23,CN(C)CCCN1c2ccccc2Sc2ccccc21.Cl,inactive: -0.115
24,Nc1cc(C(Cl)=C(Cl)Cl)c(S(N)(=O)=O)cc1S(N)(=O)=O,inactive: 1.82
25,O.O=c1ccc2cc(O[C@@H]3O[C@H](CO)[C@@H](O)[C@H](O)[C@H]3O)c(O)cc2o1,inactive: 1.75
